# Laboratory results from PMC11005723, “Development of Complementary Photo‐arginine/lysine to Promote Discovery of Arg/Lys hPTMs Interactomes” (Advanced Science, 2024).
# This continues a long series; more values of the same kind are listed elsewhere.
# Test system: HEK293T nuclear lysates
# Assay: SILAC‐based pull‐down proteomics H4K5me1/H4K5 (probes 6/5)
# Format: binding, human
substance,measurement,setting,value
probe 6: H4K5me peptide probe with photo‐arginine R(dz) and K(biotin) (SGRGKGGKGLGKGGK; photo-arginine R(dz) at 3; monomethyl-lysine at 5; K(biotin) at 15),B6 log2 (H4K5me/H4K5),"protein F8WJN3 CPSF6, run B6",0.3045
same,C6 log (H4K5me/H4K5),"protein F8WJN3 CPSF6, run C6",0.1297
same,B6 log2 (H4K5me/H4K5),"protein FAM98B isoform 2 (Q52LJ0-2), SILAC run B6",-0.3868
same,C6 log (H4K5me/H4K5),"protein FAM98B isoform 2 (Q52LJ0-2), SILAC run C6",-0.2048
same,B6 log2 (H4K5me/H4K5),"protein FANCD2 isoform 2 (Q9BXW9-2), SILAC run B6",-0.6376
same,C6 log (H4K5me/H4K5),"protein FANCD2 isoform 2 (Q9BXW9-2), SILAC run C6",0.0887
same,B6 log2 (H4K5me/H4K5),"protein FEN1 (P39748), SILAC run B6",-0.2907
same,C6 log (H4K5me/H4K5),"protein FEN1 (P39748), SILAC run C6",-0.1919
same,B6 log2 (H4K5me/H4K5),"protein FHL1 (Q5JXI8), run B6",-0.004407
same,C6 log (H4K5me/H4K5),"protein FHL1 (Q5JXI8), run C6",0.2442
same,B6 log2 (H4K5me/H4K5),"protein FLNA (A0A087WWY3), run B6",0.05691
same,C6 log (H4K5me/H4K5),"protein FLNA (A0A087WWY3), run C6",0.01778
same,B6 log2 (H4K5me/H4K5),"protein FOXK1 (P85037), run B6",0.01978
same,C6 log (H4K5me/H4K5),"protein FOXK1 (P85037), run C6",0.003876
same,B6 log2 (H4K5me/H4K5),"protein FTSJD2 (Q8N1G2), run B6",0.001052
same,C6 log (H4K5me/H4K5),"protein FTSJD2 (Q8N1G2), run C6",0.02532
same,B6 log2 (H4K5me/H4K5),"protein FUBP1 (Q96AE4), run B6",0.04743
same,C6 log (H4K5me/H4K5),"protein FUBP1 (Q96AE4), run C6",-0.04434
same,B6 log2 (H4K5me/H4K5),"protein G3XAG1 ZNF512, run B6",0.6036
same,C6 log (H4K5me/H4K5),"protein G3XAG1 ZNF512, run C6",0.6036
same,B6 log2 (H4K5me/H4K5),"protein G5E9W3 CPSF3, run B6",0.2855
same,C6 log (H4K5me/H4K5),"protein G5E9W3 CPSF3, run C6",-0.07168
same,B6 log2 (H4K5me/H4K5),"protein GABPA (Q06546), run B6",-0.01399
same,C6 log (H4K5me/H4K5),"protein GABPA (Q06546), run C6",0.008695
same,B6 log2 (H4K5me/H4K5),"protein GDI2 (P50395), SILAC run B6",-0.385
same,C6 log (H4K5me/H4K5),"protein GDI2 (P50395), SILAC run C6",-0.1229
same,B6 log2 (H4K5me/H4K5),"protein GNB2L1 (P63244), SILAC run B6",-0.4063
same,C6 log (H4K5me/H4K5),"protein GNB2L1 (P63244), SILAC run C6",0.07008
same,B6 log2 (H4K5me/H4K5),"protein GNL3 (Q9BVP2), run B6",0.01618
same,C6 log (H4K5me/H4K5),"protein GNL3 (Q9BVP2), run C6",-0.01298
same,B6 log2 (H4K5me/H4K5),"protein GPALPP1 (A0A0A0MRI1), run B6",-0.02262
same,C6 log (H4K5me/H4K5),"protein GPALPP1 (A0A0A0MRI1), run C6",-0.497
same,B6 log2 (H4K5me/H4K5),"protein GRWD1 (Q9BQ67), run B6",-0.01529
same,C6 log (H4K5me/H4K5),"protein GRWD1 (Q9BQ67), run C6",-0.1902
same,B6 log2 (H4K5me/H4K5),"protein GSPT1 (H3BR35), SILAC run B6",-0.2123
same,C6 log (H4K5me/H4K5),"protein GSPT1 (H3BR35), SILAC run C6",-0.4483
same,B6 log2 (H4K5me/H4K5),"protein GTF2E1 (C9IYL4), SILAC run B6",-0.2624
same,C6 log (H4K5me/H4K5),"protein GTF2E1 (C9IYL4), SILAC run C6",0.001099
same,B6 log2 (H4K5me/H4K5),"protein GTF2F1 (P35269), run B6",-0.02058
same,C6 log (H4K5me/H4K5),"protein GTF2F1 (P35269), run C6",-0.09847
same,B6 log2 (H4K5me/H4K5),"protein GTF2I (P78347), run B6",0.06118
same,C6 log (H4K5me/H4K5),"protein GTF2I (P78347), run C6",-0.04696
same,B6 log2 (H4K5me/H4K5),"protein GTF3C1 (Q12789), SILAC run B6",-0.3507
same,C6 log (H4K5me/H4K5),"protein GTF3C1 (Q12789), SILAC run C6",-0.1541
same,B6 log2 (H4K5me/H4K5),"protein GTF3C2 (Q8WUA4), SILAC run B6",-0.2095
same,C6 log (H4K5me/H4K5),"protein GTF3C2 (Q8WUA4), SILAC run C6",-0.1414
same,B6 log2 (H4K5me/H4K5),"protein GTF3C3 (Q9Y5Q9), run B6",0.08665
same,C6 log (H4K5me/H4K5),"protein GTF3C3 (Q9Y5Q9), run C6",0.0487
same,B6 log2 (H4K5me/H4K5),"protein GTF3C4 (Q9UKN8), run B6",-0.001594
same,C6 log (H4K5me/H4K5),"protein GTF3C4 (Q9UKN8), run C6",-0.132
same,B6 log2 (H4K5me/H4K5),"protein H7C3I1 ST13, run B6",0.4721
same,C6 log (H4K5me/H4K5),"protein H7C3I1 ST13, run C6",0.08786
same,B6 log2 (H4K5me/H4K5),"protein HDAC1 (Q13547), run B6",0.06689
same,C6 log (H4K5me/H4K5),"protein HDAC1 (Q13547), run C6",0.0445
same,B6 log2 (H4K5me/H4K5),"protein HDAC2 (Q92769), run B6",0.06048
same,C6 log (H4K5me/H4K5),"protein HDAC2 (Q92769), run C6",0.05567
same,B6 log2 (H4K5me/H4K5),"protein HDGFRP2 (Q7Z4V5), SILAC run B6",-0.2157
same,C6 log (H4K5me/H4K5),"protein HDGFRP2 (Q7Z4V5), SILAC run C6",-0.2495
same,B6 log2 (H4K5me/H4K5),"protein HELLS (A0A087WSW7), SILAC run B6",-0.6994
same,C6 log (H4K5me/H4K5),"protein HELLS (A0A087WSW7), SILAC run C6",-0.007075
same,B6 log2 (H4K5me/H4K5),"protein HIRIP3 (Q9BW71), run B6",0.09617
same,C6 log (H4K5me/H4K5),"protein HIRIP3 (Q9BW71), run C6",-0.02201
same,B6 log2 (H4K5me/H4K5),"protein HIST1H2AH (Q96KK5), SILAC run B6",-0.2375
same,C6 log (H4K5me/H4K5),"protein HIST1H2AH (Q96KK5), SILAC run C6",-0.05107
same,B6 log2 (H4K5me/H4K5),"protein HMGA1 (P17096), SILAC run B6",-0.2491
same,C6 log (H4K5me/H4K5),"protein HMGA1 (P17096), SILAC run C6",-0.4117
same,B6 log2 (H4K5me/H4K5),"protein HMGB3 (E9PES6), SILAC run B6",-0.4603
same,C6 log (H4K5me/H4K5),"protein HMGB3 (E9PES6), SILAC run C6",-0.3766
same,B6 log2 (H4K5me/H4K5),"protein HMGN5 (P82970), run B6",-0.02293
same,C6 log (H4K5me/H4K5),"protein HMGN5 (P82970), run C6",0.008719
same,B6 log2 (H4K5me/H4K5),"protein HN1L (H3BU16), run B6",0.01543
same,C6 log (H4K5me/H4K5),"protein HN1L (H3BU16), run C6",-0.0616
same,B6 log2 (H4K5me/H4K5),"protein HNRNPA2B1 (P22626), run B6",0.09679
same,C6 log (H4K5me/H4K5),"protein HNRNPA2B1 (P22626), run C6",0.03367
same,B6 log2 (H4K5me/H4K5),"protein HNRNPA3 (P51991), run B6",-0.014
same,C6 log (H4K5me/H4K5),"protein HNRNPA3 (P51991), run C6",0.0433
same,B6 log2 (H4K5me/H4K5),"protein HNRNPD (Q14103), run B6",0.1113
same,C6 log (H4K5me/H4K5),"protein HNRNPD (Q14103), run C6",0.0238
same,B6 log2 (H4K5me/H4K5),"protein HNRNPDL (A0A087WUK2), run B6",0.07155
same,C6 log (H4K5me/H4K5),"protein HNRNPDL (A0A087WUK2), run C6",0.1568
same,B6 log2 (H4K5me/H4K5),"protein HNRNPK (P61978), run B6",0.1161
same,C6 log (H4K5me/H4K5),"protein HNRNPK (P61978), run C6",0.04993
same,B6 log2 (H4K5me/H4K5),"protein HNRNPLL (C9IYN3), run B6",0.01069
same,C6 log (H4K5me/H4K5),"protein HNRNPLL (C9IYN3), run C6",-0.03826
same,B6 log2 (H4K5me/H4K5),"protein HNRNPM (P52272), run B6",-0.005939
same,C6 log (H4K5me/H4K5),"protein HNRNPM (P52272), run C6",-0.1401
same,B6 log2 (H4K5me/H4K5),"protein HNRNPR (O43390), run B6",0.04397
same,C6 log (H4K5me/H4K5),"protein HNRNPR (O43390), run C6",0.3897
same,B6 log2 (H4K5me/H4K5),"protein HNRNPUL2 (Q1KMD3), run B6",0.06176
same,C6 log (H4K5me/H4K5),"protein HNRNPUL2 (Q1KMD3), run C6",0.2537
same,B6 log2 (H4K5me/H4K5),"protein HPRT1 (P00492), SILAC run B6",-0.3403
same,C6 log (H4K5me/H4K5),"protein HPRT1 (P00492), SILAC run C6",-0.132
same,B6 log2 (H4K5me/H4K5),"protein HSP90AB1 (P08238), run B6",0.06955
same,C6 log (H4K5me/H4K5),"protein HSP90AB1 (P08238), run C6",-0.04407
same,B6 log2 (H4K5me/H4K5),"protein HSP90B1 (P14625), run B6",0.007536
same,C6 log (H4K5me/H4K5),"protein HSP90B1 (P14625), run C6",-0.07511
same,B6 log2 (H4K5me/H4K5),"protein HSPA1A (P08107), run B6",0.05336
same,C6 log (H4K5me/H4K5),"protein HSPA1A (P08107), run C6",0
same,B6 log2 (H4K5me/H4K5),"protein HSPA4 (P34932), run B6",0.01519
same,C6 log (H4K5me/H4K5),"protein HSPA4 (P34932), run C6",-0.08476
same,B6 log2 (H4K5me/H4K5),"protein HSPA5 (P11021), SILAC run B6",-0.2997
same,C6 log (H4K5me/H4K5),"protein HSPA5 (P11021), SILAC run C6",0.1483
same,B6 log2 (H4K5me/H4K5),"protein HSPH1 (Q92598), SILAC run B6",-0.2073
same,C6 log (H4K5me/H4K5),"protein HSPH1 (Q92598), SILAC run C6",-0.4709
same,B6 log2 (H4K5me/H4K5),"protein I3L0H8 DDX19A, run B6",0.6127
same,C6 log (H4K5me/H4K5),"protein I3L0H8 DDX19A, run C6",0.6127
same,B6 log2 (H4K5me/H4K5),"protein ILKAP (Q9H0C8), run B6",0.1086
same,C6 log (H4K5me/H4K5),"protein ILKAP (Q9H0C8), run C6",0.1449
same,B6 log2 (H4K5me/H4K5),"protein IPO7 (O95373), run B6",-0.006564
same,C6 log (H4K5me/H4K5),"protein IPO7 (O95373), run C6",-0.4333
same,B6 log2 (H4K5me/H4K5),"protein IPO8 (O15397), run B6",0.06366
same,C6 log (H4K5me/H4K5),"protein IPO8 (O15397), run C6",-0.05257
same,B6 log2 (H4K5me/H4K5),"protein IWS1 (Q96ST2), run B6",0.02663
